“And” between values parts separate entries of the source, which are not always exact repeats. Identical values can stand only once. This is one part of the list. For some assays here: The exact form of the protein is not confirmed.
What was measured:
Test in all cases: protein microarray (ProtoArray v5.0), streptavidin-Alexa Fluor 647
Conditions in all cases: 3'-biotin; 20 mM Tris (pH 7.5), 5 mM MgCl2, 100 mM KCl, 0.1% Tween-20, A/T-rich and random oligonucleotide blockers; temperature not stated; high values mean tight binding
[1] = system: Huntingtin-interacting protein M (human)
[2] = system: Hydroxysteroid dehydrogenase-like protein 1 (human)
ICA1L (human) = system: ICA1L (human)
ICEBERG (human) = system: ICEBERG (human)
IDH3B (human) = system: IDH3B (human)
IDI2 (human) = system: IDI2 (human)
IFI35 (human) = system: IFI35 (human)
IFIH1 (human) = system: IFIH1 (human)
IFIT3 (human) = system: IFIT3 (human)
IFITM2 (human) = system: IFITM2 (human)
IFITM3 (human) = system: IFITM3 (human)
IFNA1 = target: T1, IFNA1 (UniProt P0DY56)
T1 sequence: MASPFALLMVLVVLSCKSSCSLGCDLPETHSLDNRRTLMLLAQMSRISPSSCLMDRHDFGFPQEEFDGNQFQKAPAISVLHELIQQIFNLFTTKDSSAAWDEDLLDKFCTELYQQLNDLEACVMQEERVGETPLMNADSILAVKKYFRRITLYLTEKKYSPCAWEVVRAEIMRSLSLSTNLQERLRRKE

IFNA2 (human) = system: IFNA2 (human)
IFNA21 (human) = system: IFNA21 (human)
IFNA5 (human) = system: IFNA5 (human)
IFNA6 (human) = system: IFNA6 (human)
IFNA8 (human) = system: IFNA8 (human)
IFNAR2 (human) = system: IFNAR2 (human)
IFNGR2 (human) = system: IFNGR2 (human)
IFNK (human) = system: IFNK (human)

Sequence: GGGAGGCTGAGGCAGG [G4-1 biotinylated (PQS2)]
- binding signal [1]: -0.34 z-score
- binding signal [2]: -0.335 z-score
- binding signal (ICA1L (human)): -0.324 z-score and -0.3 z-score
- binding signal (ICEBERG (human)): -0.344 z-score
- binding signal (IDH3B (human)): -0.31 z-score
- binding signal (IDI2 (human)): -0.303 z-score
- binding signal (IFI35 (human)): -0.338 z-score
- binding signal (IFIH1 (human)): -0.317 z-score
- binding signal (IFIT3 (human)): -0.365 z-score
- binding signal (IFITM2 (human)): -0.257 z-score
- binding signal (IFITM3 (human)): -0.308 z-score
- binding signal (IFNA1): -0.333 z-score
- binding signal (IFNA2 (human)): -0.33 z-score
- binding signal (IFNA21 (human)): -0.281 z-score
- binding signal (IFNA5 (human)): -0.35 z-score
- binding signal (IFNA6 (human)): -0.326 z-score
- binding signal (IFNA8 (human)): -0.341 z-score
- binding signal (IFNAR2 (human)): -0.303 z-score
- binding signal (IFNGR2 (human)): -0.309 z-score
- binding signal (IFNK (human)): -0.344 z-score
